The supplement of paper PMC4635364
Where a name gives a salt, the structure may show the parent alone. This is one part of the list. This data set is noisy: repeats of one test often differ as much as different tests do.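 Cells: ReNCell VM human fetal ventral-midbrain neural progenitors, differentiated mitogen-free. Blinded raters compared doublecortin-stained (early neurons) or tyrosine hydroxylase-stained (dopaminergic neurons) images with untreated wells, where 0 means no change. After repeats and both raters were averaged, compounds scoring 2 or above became hits for retesting.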

system: ReNCell VM; assay: neuronal differentiation score (DCX+ cell fraction vs untreated, manual image score) (score (-3 to 3)); higher = more neuronal differentiation; details: library: Tocriscreen; 2 uM; 2 weeks

Neuronal differentiation score, inactive:
CCn1c(=O)[nH]c2ccccc21 0, N#Cc1ccccc1OCC(O)CNCCNC(=O)Nc1ccccc1 (centres undefined) 0, CC1=C(/C=C/C(=C/C=C/C(C)=C/C(=O)O)c2ccc(C)cc2)C(C)(C)CCC1 0, CCCN(C/C=C/I)C1CCc2cccc(O)c2C1 (centres undefined) [8-Hydroxy-PIPAT oxalate] 0, Nc1[nH]nc2nc3ccccc3nc12 0

system: ReNCell VM; assay: dopaminergic neuron differentiation score (TH+ cell fraction vs untreated, manual image score) (score (0 to 3)); higher = more TH+ dopaminergic neuron differentiation; details: library: LOPAC; 2 uM; 4 weeks; BDNF 10 ng/ml + GDNF 10 ng/ml

Dopaminergic neuron differentiation score, inactive:
O=C(c1cc(O)c(O)c([N+](=O)[O-])c1)c1ccccc1F 0, N[C@H](C(=O)O)[C@H]1C[C@@H]1C(=O)O [(2S,1'S,2'S)-2-(carboxycyclopropyl)glycine] 0, Nc1ccc(-c2ccc3ccccc3n2)cc1 [BF-170 hydrochloride] 0, NC(=O)NO [Hydroxyurea] 0, COc1cc2ncnc(Nc3cccc(Cl)c3)c2cc1OC [Tyrphostin AG 1478] 0, C[C@](N)(Cc1ccc(O)c(O)c1)C(=O)O [L-alpha-Methyl DOPA] 0, O=c1onc2n1-c1cc(Br)ccc1OC2 0, CN1CCN(c2nc3cc(C(F)(F)F)ccc3n3cccc23)CC1 0, COc1ccc2c(c1)CC[C@@H]1[C@@H]2CC[C@]2(C)[C@@H](NCCCCCCN3C(=O)CCC3=O)CC[C@@H]12 0
